Measured values taken from patent US10544202B2, “Mutant proteins and methods for their production” (Medical Research Council, priority 2013, dated 2020).

By UniProt entry, the sequences of proteins in these tests, tags left out.
UniProt P31652, whole entry: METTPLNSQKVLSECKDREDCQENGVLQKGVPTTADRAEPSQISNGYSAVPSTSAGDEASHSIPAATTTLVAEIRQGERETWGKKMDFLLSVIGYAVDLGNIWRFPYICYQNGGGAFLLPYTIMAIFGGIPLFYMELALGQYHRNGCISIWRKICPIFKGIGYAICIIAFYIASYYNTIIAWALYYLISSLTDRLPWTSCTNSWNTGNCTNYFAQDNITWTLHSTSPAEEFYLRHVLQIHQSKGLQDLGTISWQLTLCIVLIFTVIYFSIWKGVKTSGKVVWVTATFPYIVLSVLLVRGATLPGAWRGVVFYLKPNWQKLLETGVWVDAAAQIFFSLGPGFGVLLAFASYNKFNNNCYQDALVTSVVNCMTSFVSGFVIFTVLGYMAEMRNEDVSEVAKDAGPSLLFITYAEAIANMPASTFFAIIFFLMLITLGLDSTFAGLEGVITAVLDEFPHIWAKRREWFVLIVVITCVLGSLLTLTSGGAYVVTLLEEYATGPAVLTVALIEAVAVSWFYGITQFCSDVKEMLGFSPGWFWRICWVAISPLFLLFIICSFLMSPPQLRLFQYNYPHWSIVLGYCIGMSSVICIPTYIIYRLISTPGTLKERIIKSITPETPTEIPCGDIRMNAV

Target: wild-type SERT (Rattus norvegicus, UniProt P31652)
Experiment: [125I]-RTI55 saturation binding on membranes, wild-type SERT
Conditions: read-out: apparent KD for [125I]-RTI55 binding, tested as the radiolabelled form

For `COC(=O)[C@H]1[C@@H](c2ccc(I)cc2)C[C@@H]2CC[C@H]1N2C`, the Kd was 1.6 nM and 3.7 nM.

For part of its entries the source gives two or more results. They are shown here; other results are not. An entry can have further records. The values listed for one entry do not match, cause unknown; dose, time, organism, isomer or construct need not be as stated for each record.
